Test results published in patent US20200390689A1, “CERDULATINIB-CONTAINING TOPICAL SKIN PHARMACEUTICAL COMPOSITIONS AND USES THEREOF” (Dermavant Sciences GmbH, priority 2018, published 2020).
pIC50: −log10 of the molar value.

Target: T1, JAK3 (Homo sapiens, UniProt P52333)
T1 sequence (P52333 1-1124): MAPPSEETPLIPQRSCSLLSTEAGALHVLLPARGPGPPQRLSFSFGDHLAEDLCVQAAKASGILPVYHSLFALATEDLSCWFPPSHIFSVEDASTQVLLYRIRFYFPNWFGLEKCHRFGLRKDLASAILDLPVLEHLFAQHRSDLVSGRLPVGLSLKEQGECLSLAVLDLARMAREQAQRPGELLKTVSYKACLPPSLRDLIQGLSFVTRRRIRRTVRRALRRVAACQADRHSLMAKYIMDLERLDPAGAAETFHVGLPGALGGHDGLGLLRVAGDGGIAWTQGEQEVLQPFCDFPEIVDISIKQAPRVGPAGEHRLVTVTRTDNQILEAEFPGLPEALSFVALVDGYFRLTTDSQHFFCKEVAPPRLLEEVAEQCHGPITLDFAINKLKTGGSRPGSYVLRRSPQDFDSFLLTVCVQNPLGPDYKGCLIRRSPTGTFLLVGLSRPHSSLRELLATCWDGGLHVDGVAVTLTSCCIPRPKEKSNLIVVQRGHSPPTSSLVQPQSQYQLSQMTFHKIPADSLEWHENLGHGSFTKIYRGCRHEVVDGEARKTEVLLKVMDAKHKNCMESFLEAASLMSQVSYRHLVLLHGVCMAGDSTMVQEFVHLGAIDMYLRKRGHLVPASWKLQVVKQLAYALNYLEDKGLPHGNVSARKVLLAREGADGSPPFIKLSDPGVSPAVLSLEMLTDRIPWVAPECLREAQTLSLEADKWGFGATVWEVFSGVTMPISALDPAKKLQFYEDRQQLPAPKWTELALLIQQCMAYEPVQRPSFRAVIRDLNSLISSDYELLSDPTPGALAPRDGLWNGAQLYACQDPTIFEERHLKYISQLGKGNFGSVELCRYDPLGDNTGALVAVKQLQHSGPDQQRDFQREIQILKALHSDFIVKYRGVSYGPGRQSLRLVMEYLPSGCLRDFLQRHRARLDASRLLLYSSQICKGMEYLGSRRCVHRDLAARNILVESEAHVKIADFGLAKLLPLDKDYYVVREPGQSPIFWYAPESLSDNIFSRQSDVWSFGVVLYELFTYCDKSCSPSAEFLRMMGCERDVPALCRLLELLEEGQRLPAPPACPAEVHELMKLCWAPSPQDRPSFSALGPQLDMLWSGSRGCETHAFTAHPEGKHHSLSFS
Test: DiscoveRx cellular platform, JAK3

`CCS(=O)(=O)N1CCN(c2ccc(Nc3ncc(C(N)=O)c(NC4CC4)n3)cc2)CC1` [DMVT-502, Cerdulatinib] was tested, and the pIC50 was 5.29.
